Experimental data reported in publication PMC7764042.
Results are given in words; binding and its absence hold for the method and conditions named.

How the values were obtained:
[1] = target: recombinant human interferon beta-1a (human) (UniProt P01574); assay: SPR; IFN-β immobilised by amine coupling; Ca^2+-depleted S100 as analyte (1 µM); 25 °C; 10 mM HEPES, 150 mM NaCl, 0.01% TWEEN 20, pH 7.4, 1 mM EDTA; both purified
[2] = target: recombinant human interferon beta-1a (human) (UniProt P01574); assay: SPR; IFN-β immobilised on ProteOn GLH chip by amine coupling; Ca^2+-loaded S100 as analyte (0.25–5 µM S100A1, 0.5–5 µM S100A4/A6, 5 µM other S100); 25 °C; 10 mM HEPES, 150 mM NaCl, 0.01% TWEEN 20, pH 7.4, 1 mM CaCl2; heterogeneous ligand model; both purified
[3] = target: recombinant human interferon beta-1a (human), P01574; assay: SPR; IFN-β immobilised by amine coupling; Ca^2+-depleted S100 as analyte (1 µM); 25 °C; 10 mM HEPES, 150 mM NaCl, 0.01% TWEEN 20, pH 7.4, 1 mM EDTA; both purified; conditions: remark: other sources report otherwise
[4] = target: recombinant human interferon beta-1a (human), P01574; assay: SPR; IFN-β immobilised on ProteOn GLH chip by amine coupling; Ca^2+-loaded S100 as analyte (0.25–5 µM S100A1, 0.5–5 µM S100A4/A6, 5 µM other S100); 25 °C; 10 mM HEPES, 150 mM NaCl, 0.01% TWEEN 20, pH 7.4, 1 mM CaCl2; heterogeneous ligand model; both purified; conditions: remark: other sources report otherwise

binding [1]	binding [3]	Binder	binding [2]	binding [4]
no binding (tested: 1 µM (1 mM EDTA))	–	recombinant human S100A11 (protein, UniProt P31949 1-105) MAKISSPTETERCIESLIAVFQKYAGKDGYNYTLSKTEFLSFMNTELAAFTKNQKDPGVLDRMMKKLDTNSDGQLDFSEFLNLIGGLAMACHDSFLKAVPSQKRT	no binding (tested: 5 µM; Kd not below 10 µM)	–
no binding (tested: 1 µM (1 mM EDTA))	–	recombinant human S100A12 (protein, UniProt P80511 1-92) MTKLEEHLEGIVNIFHQYSVRKGHFDTLSKGELKQLLTKELANTIKNIKDKAVIDEIFQGLDANQDEQVDFQEFISLVAIALKAAHYHTHKE	no binding (tested: 5 µM; Kd not below 10 µM)	–
no binding (tested: 1 µM (1 mM EDTA))	–	recombinant human S100A14 (protein, UniProt Q9HCY8 1-104) MGQCRSANAEDAQEFSDVERAIETLIKNFHQYSVEGGKETLTPSELRDLVTQQLPHLMPSNCGLEEKIANLGSCNDSKLEFRSFWELIGEAAKSVKLERPVRGH	no binding (tested: 5 µM; Kd not below 10 µM)	–
–	no binding (tested: 1 µM (1 mM EDTA))	recombinant human S100B, P04271 1-92 (natural protein) MSELEKAMVALIDVFHQYSGREGDKHKLKKSELKELINNELSHFLEEIKEQEVVDKVMETLDNDGDGECDFQEFMAFVAMVTTACHEFFEHE	–	no binding (tested: 5 µM; Kd not below 10 µM)
no binding (tested: 1 µM (1 mM EDTA))	–	recombinant human S100A9 (protein, UniProt P06702 1-114) MTCKMSQLERNIETIINTFHQYSVKLGHPDTLNQGEFKELVRKDLQNFLKKENKNEKVIEHIMEDLDTNADKQLSFEEFIMLMARLTWASHEKMHEGDEGPGHHHKPGLGEGTP	no binding (tested: 5 µM; Kd not below 10 µM)	–
no binding (tested: 1 µM (1 mM EDTA))	–	recombinant human S100A8 (protein, UniProt P05109 1-93) MLTELEKALNSIIDVYHKYSLIKGNFHAVYRDDLKKLLETECPQYIRKKGADVWFKELDINTDGAVNFQEFLILVIKMGVAAHKKSHEESHKE	no binding (tested: 5 µM; Kd not below 10 µM)	–
no binding (tested: 1 µM (1 mM EDTA))	–	recombinant human S100A15 (S100A7A) (protein, UniProt Q86SG5 1-101) MSNTQAERSIIGMIDMFHKYTGRDGKIEKPSLLTMMKENFPNFLSACDKKGIHYLATVFEKKDKNEDKKIDFSEFLSLLGDIAADYHKQSHGAAPCSGGSQ	no binding (tested: 5 µM; Kd not below 10 µM)	–
no binding (tested: 1 µM (1 mM EDTA))	–	recombinant human S100A7 (protein, UniProt P31151 1-101) MSNTQAERSIIGMIDMFHKYTRRDDKIEKPSLLTMMKENFPNFLSACDKKGTNYLADVFEKKDKNEDKKIDFSEFLSLLGDIATDYHKQSHGAAPCSGGSQ	no binding (tested: 5 µM; Kd not below 10 µM)	–
no binding (tested: 1 µM (1 mM EDTA))	–	recombinant human S100A13 (protein, UniProt Q99584 1-98) MAAEPLTELEESIETVVTTFFTFARQEGRKDSLSVNEFKELVTQQLPHLLKDVGSLDEKMKSLDVNQDSELKFNEYWRLIGELAKEIRKKKDLKIRKK	no binding (tested: 5 µM; Kd not below 10 µM)	–
